Source: patent US20030119072A1
Results are given in words; binding and its absence hold for the method and conditions named. Some results given as binding are weak or reduced against the parent protein; the word gives no strength.

Tests used:
GST-WWP1.1 [1] = assay: TRF (DELFIA) plate assay, GST-WW domain coated at 30 µg/mL, titrated with biotinylated peptide
GST-WWP1.1 [2] = assay: TRF (DELFIA) plate assay, GST-WW domain coated at 0-10 µg/mL, biotinylated peptide 30 µM

binding (GST-WWP1.1 [1])	binding (GST-WWP1.1 [2])	Binder
binds	–	GPESPPPPYSRLSP (biotinylated (C6-linker and biotin tag)) [Smad6 PY motif peptide …]
binds	–	PADTPPPAYMPPDD (biotinylated (C6-linker and biotin tag)) [Smad5 PY motif peptide …]
–	binds	HPGTPPPPYTVGPG (N-terminal Biotin-Ahx; C-terminal amide (CONH2)) [WBP1 PY motif peptide, Biotin-Ahx-…-CONH2]
